From patent publication EP4840868A1, “NOVEL DISACCHARIDE LINKER, PREPARATION METHOD THEREFOR AND USE THEREOF” (dated 2026)
Structures were worked out from names or drawings and are uncertain.

Protein sequences, listed by entry. Tags and fused reporters are not part of them. Residues count along the entry.
UniProt T1WGN1, 38-843 limits assumed: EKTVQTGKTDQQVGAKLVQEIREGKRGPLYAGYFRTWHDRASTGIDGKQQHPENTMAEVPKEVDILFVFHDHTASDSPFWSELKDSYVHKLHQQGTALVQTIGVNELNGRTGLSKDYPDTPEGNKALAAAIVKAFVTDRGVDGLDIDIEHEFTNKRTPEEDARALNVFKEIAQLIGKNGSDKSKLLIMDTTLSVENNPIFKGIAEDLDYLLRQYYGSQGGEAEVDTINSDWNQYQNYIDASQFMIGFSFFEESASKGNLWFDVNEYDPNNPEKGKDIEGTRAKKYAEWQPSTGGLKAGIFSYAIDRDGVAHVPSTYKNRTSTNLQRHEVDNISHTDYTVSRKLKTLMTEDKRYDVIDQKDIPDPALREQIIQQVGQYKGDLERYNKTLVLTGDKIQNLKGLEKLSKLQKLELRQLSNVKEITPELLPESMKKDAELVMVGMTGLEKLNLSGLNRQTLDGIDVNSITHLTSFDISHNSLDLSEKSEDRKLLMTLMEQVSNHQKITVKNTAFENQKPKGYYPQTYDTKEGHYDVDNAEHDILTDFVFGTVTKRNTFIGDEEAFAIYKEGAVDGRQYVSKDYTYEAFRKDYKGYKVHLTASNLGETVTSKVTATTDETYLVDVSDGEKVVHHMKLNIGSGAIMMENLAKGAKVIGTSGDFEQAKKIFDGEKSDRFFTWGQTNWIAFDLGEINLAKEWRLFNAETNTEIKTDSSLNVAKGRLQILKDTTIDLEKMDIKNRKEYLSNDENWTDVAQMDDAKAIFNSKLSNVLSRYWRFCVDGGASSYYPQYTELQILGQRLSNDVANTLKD
UniProt Q99Y92, 37-995 limits assumed: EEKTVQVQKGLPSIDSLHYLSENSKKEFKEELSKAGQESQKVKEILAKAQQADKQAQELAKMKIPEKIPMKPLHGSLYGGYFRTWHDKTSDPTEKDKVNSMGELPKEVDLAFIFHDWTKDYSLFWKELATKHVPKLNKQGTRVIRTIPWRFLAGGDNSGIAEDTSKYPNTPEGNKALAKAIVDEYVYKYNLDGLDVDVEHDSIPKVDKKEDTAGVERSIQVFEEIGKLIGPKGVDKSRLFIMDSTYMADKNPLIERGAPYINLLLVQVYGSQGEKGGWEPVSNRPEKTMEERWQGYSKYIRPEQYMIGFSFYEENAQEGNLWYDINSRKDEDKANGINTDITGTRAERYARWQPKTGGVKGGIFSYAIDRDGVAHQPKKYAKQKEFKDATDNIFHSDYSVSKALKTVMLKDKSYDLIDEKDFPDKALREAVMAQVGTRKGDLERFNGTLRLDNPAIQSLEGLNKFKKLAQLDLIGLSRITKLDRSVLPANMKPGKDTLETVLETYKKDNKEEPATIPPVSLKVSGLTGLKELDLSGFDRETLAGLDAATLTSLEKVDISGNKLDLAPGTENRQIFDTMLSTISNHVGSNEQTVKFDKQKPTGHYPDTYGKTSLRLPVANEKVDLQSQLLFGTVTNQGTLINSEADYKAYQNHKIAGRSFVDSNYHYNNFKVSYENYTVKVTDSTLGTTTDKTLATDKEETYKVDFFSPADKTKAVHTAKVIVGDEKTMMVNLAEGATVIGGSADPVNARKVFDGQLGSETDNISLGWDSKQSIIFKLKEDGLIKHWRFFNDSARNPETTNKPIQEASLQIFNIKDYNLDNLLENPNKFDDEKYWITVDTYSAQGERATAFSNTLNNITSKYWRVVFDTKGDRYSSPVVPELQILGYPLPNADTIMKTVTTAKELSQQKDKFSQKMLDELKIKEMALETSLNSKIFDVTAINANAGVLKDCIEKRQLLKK

Experiments:
Assay in all cases: Substrate specificity: transglycosylation of disaccharide linkers onto wild-type pertuzumab, LC-MS
[1] = target: Endo S2 (Streptococcus pyogenes serotype M49, UniProt T1WGN1); details: Endo S2 0.4 mg/mL; wild-type pertuzumab 10 mg/mL; linker 1.67 mM; pH 7.4, 25°C; after 6 hours
[2] = system: Endo Si; details: Endo Si 0.4 mg/mL; wild-type pertuzumab 10 mg/mL; linker 1.67 mM; pH 7.4, 25°C; after 6 hours
[3] = system: Endo Se2; details: Endo Se2 0.4 mg/mL; wild-type pertuzumab 10 mg/mL; linker 1.67 mM; pH 7.4, 25°C; after 6 hours
[4] = target: Endo S (Streptococcus pyogenes serotype M1, UniProt Q99Y92); details: Endo S 0.4 mg/mL; wild-type pertuzumab 10 mg/mL; linker 1.67 mM; pH 7.4, 25°C; after 6 hours

SMILES | Transglycosylation efficiency (%) [1] [%] | Transglycosylation efficiency (%) [2] [%] | Transglycosylation efficiency (%) [3] [%] | Transglycosylation efficiency (%) [4] [%]
CCC1=N[C@H]2[C@@H](O1)O[C@H](CO)[C@@H](O[C@@H]1O[C@H](CNC(=O)CCCCCCCN[C@@H](CCCCNC(=O)Cc3ccc(-c4nnc(C)nn4)cc3)C(=O)NCCOCCOCCOCCOCCOCCOCCN=[N+]=[N-])[C@H](O)[C@H](O)[C@H]1O)[C@@H]2O | 52.9 | >95 | >95 | 11.7
Cc1nnc(-c2ccc(OCCOCCOCCOCCOCCOCCOCCOCCOCCC(=O)NC[C@H]3O[C@@H](O[C@H]4[C@H](O)[C@H]5N=C(CN=[N+]=[N-])O[C@H]5O[C@@H]4CO)[C@H](O)[C@@H](O)[C@H]3O)cc2)nn1 | 6.9 | 15.1 | 53.1 | 0
